Data as given in PubChem BioAssay AID1224828 (NIAID, 2016).
In all, the deposit lists about 17,000 reagents; this is a part drawn at random. Over the whole deposit, 762 (4.5%) are marked active. 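Active calls include both raised and lowered p65 entry, mostly lowered; wells with fewer than 50 cells lack a z-score.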 Raw values vary from plate to plate and are shown uncorrected. Unmarked entries are inactive.

- Screen: 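Knock-downs that increase or decrease LPS-induced p65 nuclear translocation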 (primary screen)
- Cell system: mouse RAW264.7 G9 macrophage reporter cells (GFP-p65, Tnf promoter-mCherry)
- Reagent: siRNA pool against mouse genes, 100 nM
- Time to read-out: 2 days siRNA transfection, then 40 min LPS before fixation
- Conditions: LPS (Salmonella minnesota R595) at 10 ng/ml
- Measured: 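Imaged p65 nuclear translocation ratio, normalised to the plate median, converted to robust z-scores and averaged across two replicates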
- Direction: p65 translocation robust z-score: higher = more nuclear NF-kappaB p65 after LPS than the plate median; nuclear/cytoplasmic p65 ratio: higher = more nuclear NF-kappaB p65
- Rule for the call: 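Active if robust z is above 3.3 (negative regulators) or below -1.56, the Tlr4 control median (positive regulators); activity score 50 or more; control wells not called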
- Meaning of the calls: active = hit (p65 shift raised or lowered); inactive = no clear change

target	p65 translocation robust z-score	nuclear/cytoplasmic p65 ratio, rep 1	nuclear/cytoplasmic p65 ratio, rep 2	low cell count flag
Entr1 (endosome associated trafficking regulator 1)	-0.5	1.29	1.53	enough cells to score
Or5al5 (olfactory receptor family 5 subfamily AL member 5)	-0.33	1.57	1.37	enough cells to score
Fundc2 (FUN14 domain containing 2)		1.39	1.23	fewer than 50 cells per well; well left out of scoring
Or51ac3 (olfactory receptor family 51 subfamily AC member 3)	-0.7	1.38	1.16	enough cells to score
Catsper2 (cation channel, sperm associated 2)	0.96	1.49	1.5	enough cells to score
Snrnp27 (small nuclear ribonucleoprotein 27 (U4/U6.U5))	0.12	1.41	1.48	enough cells to score
Ftsj3 (FtsJ RNA 2'-O-methyltransferase 3)	2.11	1.94	1.71	enough cells to score
Ilf2 (interleukin enhancer binding factor 2)	-1.1	1.37	1.2	enough cells to score
Or52z1 (olfactory receptor family 52 subfamily Z member 1)	0.7	1.53	1.35	enough cells to score
Ccr7 (C-C motif chemokine receptor 7)		1.49	1.46	fewer than 50 cells per well; well left out of scoring
Zbtb37 (zinc finger and BTB domain containing 37)	0.18	1.49	1.6	enough cells to score
Pilrb1 (paired immunoglobin-like type 2 receptor beta 1)		1.43	1.11	fewer than 50 cells per well; well left out of scoring
AI597479 (expressed sequence AI597479)	1.06	1.74	1.87	enough cells to score
Or51a6 (olfactory receptor family 51 subfamily A member 6)	-0.46	1.44	1.22	enough cells to score
Dhx8 (DEAH-box helicase 8)		1.17	1.25	fewer than 50 cells per well; well left out of scoring
Trpv5	0.3	1.54	1.56	enough cells to score
Ncor2 (nuclear receptor co-repressor 2)	-1.77 (active)	1.22	1.11	enough cells to score
Armcx1 (armadillo repeat containing, X-linked 1)	0.03	1.61	1.51	enough cells to score
Usp37 (ubiquitin specific peptidase 37)	-0.2	1.47	1.7	enough cells to score
Atm (ataxia telangiectasia mutated)	0.57	1.67	1.46	enough cells to score
Ubr5 (ubiquitin protein ligase E3 component n-recognin 5)	0.26	1.67	1.63	enough cells to score
Mrps9 (mitochondrial ribosomal protein S9)	-0.91	1.65	1.44	enough cells to score
Sdad1 (SDA1 domain containing 1)	-0.62	1.36	1.13	enough cells to score
Bglap (bone gamma carboxyglutamate protein)		1.1	1.65	fewer than 50 cells per well; well left out of scoring
Atp5po (ATP synthase peripheral stalk subunit OSCP)	-0.76	1.45	1.44	enough cells to score
Eapp (E2F-associated phosphoprotein)	1.43	1.59	1.59	enough cells to score
Clec2h (C-type lectin domain family 2, member h)	0.2	1.68	1.76	enough cells to score
Zic4 (zinc finger protein of the cerebellum 4)		1.4	1.42	fewer than 50 cells per well; well left out of scoring
Foxd3 (forkhead box D3)	0.48	1.42	1.5	enough cells to score
Foxp1 (forkhead box P1)	-0.11	1.4	1.38	enough cells to score
Elk4 (ETS transcription factor ELK4)	0.27	1.45	1.45	enough cells to score
Bfsp1 (beaded filament structural protein 1, in lens-CP94)	-1.17	1.28	1.35	enough cells to score
Ddx50 (DExD box helicase 50)	0.3	1.65	1.56	enough cells to score
Gng13 (guanine nucleotide binding protein (G protein), gamma 13)	-0.29	1.6	1.5	enough cells to score
Tsg101 (tumor susceptibility gene 101)	-1.45	1.38	1.24	enough cells to score
Bcl6b (B cell CLL/lymphoma 6, member B)	-0.01	1.64	1.59	enough cells to score
Psg28 (pregnancy-specific beta-1-glycoprotein 28)	0.88	1.5	1.31	enough cells to score
Zfp652 (zinc finger protein 652)	-0.07	1.36	1.6	enough cells to score
Or4c3 (olfactory receptor family 4 subfamily C member 3)	1.07	1.67	1.29	enough cells to score
Ipmk (inositol polyphosphate multikinase)	0.4	1.8	1.39	enough cells to score
Zc2hc1c (zinc finger, C2HC-type containing 1C)	-0.27	1.42	1.37	enough cells to score
Trib3 (tribbles pseudokinase 3)	-1.52	1.47	1.17	enough cells to score
Rap1gds1 (RAP1, GTP-GDP dissociation stimulator 1)	-0.97	1.39	1.37	enough cells to score
Mrpl9 (mitochondrial ribosomal protein L9)	1.95	2.04	1.94	enough cells to score
Pcnx4 (pecanex homolog 4)	1.65	1.57	1.48	enough cells to score
Igfals	1.11	1.58	1.52	enough cells to score
Zfp770 (zinc finger protein 770)	1.73	1.71	1.74	enough cells to score
Lrrc57 (leucine rich repeat containing 57)	0.53	1.52	1.49	enough cells to score
Ifi27 (interferon, alpha-inducible protein 27)	-1.07	1.37	1.66	enough cells to score
Bpi (bactericidal permeablility increasing protein)	0.64	1.77	1.65	enough cells to score
Add3 (adducin 3)	-0.52	1.54	1.54	enough cells to score
St8sia6 (ST8 alpha-N-acetyl-neuraminide alpha-2,8-sialyltransferase 6)	1.09	1.59	1.34	enough cells to score
Lrp12 (low density lipoprotein-related protein 12)	-0.66	1.49	1.54	enough cells to score
Zfp866 (zinc finger protein 866)	-2.27 (active)	1.26	1.25	enough cells to score
Serpina1b	-0.34	1.43	1.58	enough cells to score
Thap12 (THAP domain containing 12)	-1.15	1.42	1.19	enough cells to score
Tomm70a (translocase of outer mitochondrial membrane 70A)	0.34	1.59	2.1	enough cells to score
Oog3 (oogenesin 3)	-2.33 (active)	1.12	1.1	enough cells to score
Vsig8 (V-set and immunoglobulin domain containing 8)		1.08	1.04	fewer than 50 cells per well; well left out of scoring
